Assay: Static adsorption test on Ottawa sand
Conditions: with Product A versus scale inhibitor alone

| Compound | Percentage Absorption Increase [%] |
| --- | --- |
| DETA phosphonate [Product C] | 74.8 |
| O=P(O)(O)CN(CCCCCCN(CP(=O)(O)O)CP(=O)(O)O)CCCCCCN(CP(=O)(O)O)CP(=O)(O)O [Product B, BHMT phosphonate] | 82.5 |

Reference: US9624758B2, “Use of oligo-quaternary compositions to increase scale inhibitor lifetime in a subterranean formation” (Ecolab USA Inc., priority 2012, dated 2017)
